The values that follow come from article PMC11260166.

The target in test [1] is T1, EGFP-FAM110A-WT (human) (UniProt Q9BQ89).
T1 sequence: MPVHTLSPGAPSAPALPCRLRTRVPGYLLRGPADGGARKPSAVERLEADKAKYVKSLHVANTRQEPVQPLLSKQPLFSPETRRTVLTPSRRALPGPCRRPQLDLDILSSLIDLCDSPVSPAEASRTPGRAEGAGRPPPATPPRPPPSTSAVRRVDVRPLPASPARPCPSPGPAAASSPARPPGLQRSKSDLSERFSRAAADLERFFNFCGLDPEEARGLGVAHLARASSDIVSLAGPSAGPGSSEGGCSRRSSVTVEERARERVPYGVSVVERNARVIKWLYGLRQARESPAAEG
The test is described as follows: co-IP; HEK293 cells transfected, arrested in mitosis with NDZ and treated or not with PF670462 for 6 h; pull-down from cell extracts with GFP-Trap, tubulin and actin by immunoblotting. A general note: In western blotting, separated proteins are transferred to a membrane and probed.

For test [2], the target named is T2, EGFP-FAM110A-Δ188-221 (human) (UniProt Q9BQ89).
T2 sequence: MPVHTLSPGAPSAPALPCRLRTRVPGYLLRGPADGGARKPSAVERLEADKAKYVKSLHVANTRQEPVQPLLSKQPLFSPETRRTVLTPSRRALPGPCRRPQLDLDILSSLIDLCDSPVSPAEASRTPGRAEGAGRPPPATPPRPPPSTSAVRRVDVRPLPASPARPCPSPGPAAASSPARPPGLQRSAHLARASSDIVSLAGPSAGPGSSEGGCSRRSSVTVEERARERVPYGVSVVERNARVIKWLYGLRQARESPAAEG
Description: co-IP; immunoprecipitation of EGFP-tagged FAM110A variants from transiently transfected HEK293 cells in mitosis; actin and tubulin detected by immunoblotting.

For test [3], the target named is T1, EGFP-FAM110A-WT (human). Described as above.
Test [4] has as its target T3, EGFP-FAM110A-Δ40-61 (human) (UniProt Q9BQ89).
T3 sequence: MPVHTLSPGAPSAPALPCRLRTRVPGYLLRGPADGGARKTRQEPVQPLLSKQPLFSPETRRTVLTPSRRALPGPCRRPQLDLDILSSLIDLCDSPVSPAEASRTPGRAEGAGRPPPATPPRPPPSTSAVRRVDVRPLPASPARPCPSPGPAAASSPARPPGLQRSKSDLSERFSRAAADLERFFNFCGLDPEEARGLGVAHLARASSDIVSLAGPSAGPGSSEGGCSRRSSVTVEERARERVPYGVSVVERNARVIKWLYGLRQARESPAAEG
The description is as above.

Results are given in words; binding and its absence hold for the method and conditions named. In cells and extracts the contact can be indirect. For some of these results: Binding calls can cover weak binding; strength is not graded here. Tags and fused reporters may be left off the sequences shown.

With “tubulin (human (endogenous in HEK293)) (complex)”, the binding result with EGFP-FAM110A-WT (human) [1] is listed as “binds”; in test [2] it was “no binding”; in the test with EGFP-FAM110A-WT (human) [3] it was “binds”; in test [4] it was “binds”.
